Values from PubChem BioAssay AID504804 (Drosophila RNAi Screening Center, 2011).
Test: 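Knock-downs shielding fly cells from apoptosis caused by DNA damage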 (primary screen). Cells: Drosophila Kc cells. Knock-down reagent: long dsRNA against Drosophila genes, 0.5 µg dsRNA per well. Duration: 96 h (48 h knock-down, then 48 h drug). Challenge: doxorubicin 5 µg/ml for 48 h, added 48 h after dsRNA. Measurement: 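Viability measured as cellular ATP by luminescence after 48 h knock-down then 48 h doxorubicin at 5 µg/ml; unnormalised plate counts for each replicate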. Direction: raw ATP luminescence: higher = more viable cells, protection from doxorubicin. Hit rule: 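z-score of 2 or more over plate mean in both duplicates, retained only when retests and separate dsRNAs confirm the protection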.
In all, the deposit lists about 19,000 reagents; shown is a random part of those with a known target gene and a result. Over the whole deposit, 47 (0.25%) were called active. 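Signals are raw, not normalised; exact z-scores behind calls not deposited; actives needed confirmation, so some wells reaching 2 SD are inactive.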 Entries without a mark were called inactive. A plus sign joins genes that one reagent is predicted to hit.

Spn43Ad [DRSC06770] scored raw ATP luminescence, replicate 1 = 64567; raw ATP luminescence, replicate 2 = 82640. Knock-down of CG3552 [DRSC10370] resulted in: raw ATP luminescence, replicate 1 = 96920; raw ATP luminescence, replicate 2 = 94547. Spindly [DRSC00430] showed raw ATP luminescence, replicate 1 = 34607; raw ATP luminescence, replicate 2 = 39673. After knock-down of CG1701 [DRSC06641], the record shows raw ATP luminescence, replicate 1 = 43527; raw ATP luminescence, replicate 2 = 84370. Silencing of CG1309 [DRSC08302] resulted in: raw ATP luminescence, replicate 1 = 36383; raw ATP luminescence, replicate 2 = 26927. Knock-down of CG5532 [DRSC04509] came out at: raw ATP luminescence, replicate 1 = 1.65e5; raw ATP luminescence, replicate 2 = 1.70e5.

After knock-down of dbo [DRSC11339], the record shows raw ATP luminescence, replicate 1 = 66003; raw ATP luminescence, replicate 2 = 53010. For chk [DRSC04994] the deposit lists raw ATP luminescence, replicate 1 = 87720; raw ATP luminescence, replicate 2 = 62503. PQBP1 [DRSC14393] gave raw ATP luminescence, replicate 1 = 43587; raw ATP luminescence, replicate 2 = 54483. After knock-down of spidey [DRSC17932] the results were raw ATP luminescence, replicate 1 = 38550; raw ATP luminescence, replicate 2 = 41910. Cyp9f2 [DRSC16635] gave raw ATP luminescence, replicate 1 = 63290; raw ATP luminescence, replicate 2 = 31997. After knock-down of yip7 [DRSC11410] the results were raw ATP luminescence, replicate 1 = 73367; raw ATP luminescence, replicate 2 = 79447.

Silencing of CG2310 [DRSC15438] gave: raw ATP luminescence, replicate 1 = 33380; raw ATP luminescence, replicate 2 = 38320. With knock-down of CG13868 [DRSC06427], the record shows raw ATP luminescence, replicate 1 = 52723; raw ATP luminescence, replicate 2 = 66560. Against CG8405 [DRSC05599], the entry reads raw ATP luminescence, replicate 1 = 58833; raw ATP luminescence, replicate 2 = 41190. With knock-down of Sec6 [DRSC06932], the screen gave raw ATP luminescence, replicate 1 = 73673; raw ATP luminescence, replicate 2 = 76743. After knock-down of Ir76b [DRSC10831], the screen gave raw ATP luminescence, replicate 1 = 68613; raw ATP luminescence, replicate 2 = 59067. CG17807 [DRSC04296] scored raw ATP luminescence, replicate 1 = 58420; raw ATP luminescence, replicate 2 = 59357.

CG6664 [DRSC10690] gave raw ATP luminescence, replicate 1 = 20440; raw ATP luminescence, replicate 2 = 16097. Knock-down of TBPH [DRSC04660] gave: raw ATP luminescence, replicate 1 = 84390; raw ATP luminescence, replicate 2 = 61247. Silencing of Orc4 [DRSC04634] came out at: raw ATP luminescence, replicate 1 = 78803; raw ATP luminescence, replicate 2 = 63757. Depletion of Cisd2 [DRSC14904] came out at: raw ATP luminescence, replicate 1 = 35260; raw ATP luminescence, replicate 2 = 32570. corn [DRSC11021] scored raw ATP luminescence, replicate 1 = 57300; raw ATP luminescence, replicate 2 = 37453. pre-mod(mdg4)-W + pre-mod(mdg4)-Y + mod(mdg4) + 3 more [DRSC16328] scored raw ATP luminescence, replicate 1 = 26720; raw ATP luminescence, replicate 2 = 25300.

For ND-23 [DRSC15526], the values are raw ATP luminescence, replicate 1 = 39117; raw ATP luminescence, replicate 2 = 36720. After knock-down of ranshi [DRSC16564] the results were raw ATP luminescence, replicate 1 = 57757; raw ATP luminescence, replicate 2 = 75707. After knock-down of CG33969 [DRSC11777], the screen gave raw ATP luminescence, replicate 1 = 75957; raw ATP luminescence, replicate 2 = 66473. For CG5805 [DRSC15878], the entry reads raw ATP luminescence, replicate 1 = 43887; raw ATP luminescence, replicate 2 = 35133.

2 of these entries, set out differently:
gene knocked down | DRSC id | raw ATP luminescence, replicate 1 | raw ATP luminescence, replicate 2
CG2310 | DRSC15438 | 33380 | 38320
CG13868 | DRSC06427 | 52723 | 66560
